# Data from the supplement of paper PMC10735217.
# Structures can show the parent of a compound that is named as a salt. Some of the results follow. This data set is noisy: repeats of one test often differ as much as different tests do.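 In a drug-repurposing library screen, luminescence reads luciferase driven by eight TEAD-binding elements, stably integrated into human kidney-derived cells. Compounds scoring over five robust Z scores above the plate mean are called hits.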
# System: HEK293A TEAD-LUC reporter
# Assay: TEAD-luciferase reporter activity (YAP activation), robust Z score vs plate; higher = stronger YAP/TEAD activation
# Conditions: 24 h
SMILES,TEAD-luciferase reporter activity (compound concentration: 200 nM),TEAD-luciferase reporter activity (compound concentration: 2 uM),TEAD-luciferase reporter activity (compound concentration: 10 uM)
CCOC(=O)Cc1cc(Cl)c(Oc2ccc(C(=O)NC(C)(C)C)cc2NS(=O)(=O)c2ccc(C)cc2)cc1F,inactive: -1.14,inactive: -0.42,inactive: 1.72
Cc1cn(Cc2ccc(Cl)cc2Cl)c2c(/C=C/C(=O)NS(=O)(=O)c3cc(Cl)c(Cl)s3)cc(F)cc12,inactive: 2.03,inactive: 1.87,inactive: 0.836
CCCCCC(=O)O[C@]1(C(C)=O)CC[C@H]2[C@@H]3CCC4=CC(=O)CC[C@@H]4[C@H]3CCC21C (some centres undefined),inactive: -0.725,inactive: -0.909,inactive: 0.434
CCN(CC)C(=O)c1ccc(O)c(OC)c1,inactive: 1.53,inactive: -0.514,inactive: 3.02
CN1CCN(S(=O)(=O)CCCN2CCC(CNC(=O)c3cccc4c3OCCO4)CC2)CC1,inactive: 0.776,inactive: -0.151,inactive: -2.67
CCCCC/C=C\C/C=C\CCCCCCCC(=O)OCC(COC(=O)CCCCCCC/C=C\C/C=C\CCCCC)OC(=O)CCCCCCC/C=C\C/C=C\CCCCC,inactive: -0.766,inactive: -1.18,inactive: 0.471
CCOC(=O)/C=C(C)/C=C/C=C(C)/C=C/c1c(C)cc(OC)c(C)c1C,inactive: 0.204,inactive: -1.61,inactive: 0.154
CCCCCCCCCCCCNC(=O)C[N+](C)(C)Cc1ccccc1,inactive: 3.76,inactive: -1.26,inactive: 3.88
Cc1nc(-c2cccnc2)c(-c2ccccc2)[nH]1,inactive: -0.521,inactive: 0.233,inactive: -0.0682
CS(=O)(=O)OCCCCOS(C)(=O)=O [Busulfan55-98-1],inactive: -1.27,,inactive: -0.0964
"CS(=O)(=O)OCCCCOS(C)(=O)=O [busulfan, MicroParticle]",,inactive: -0.114,
"COC(=O)C1=C(C)NC(C)=C(C(=O)OC)C1c1ccccc1[N+](=O)[O-] [nifedipine once daily, Watson]",inactive: -1.01,,inactive: -1.53
COC(=O)C1=C(C)NC(C)=C(C(=O)OC)C1c1ccccc1[N+](=O)[O-] [nifedipine once daily],,inactive: -1.69,
CC(=O)N[C@H](Cc1ccc(O)cc1)C(=O)N1CCC[C@@H]1C(=O)N1C[C@@H](O)C[C@@H]1C(=O)NCC(=O)N[C@H](C)C(=O)NCC(N)=O,inactive: -0.438,inactive: -0.323,inactive: -0.647
CC(C)NC(=O)OCc1c(COC(=O)NC(C)C)c(-c2ccc(Cl)c(Cl)c2)n2c1CCC2,inactive: -1.53,inactive: 0.426,inactive: -1.64
CC(C)[C@H](NC(=O)[C@H](C(C)C)N(C)C)C(=O)N(C)[C@H](C(=O)N1CCC[C@H]1C(=O)N1CCC[C@H]1C(=O)NC(C)(C)C)C(C)C,inactive: -2.04,inactive: -0.138,inactive: -0.727
O[C@H]([C@H](O)[C@@H]1CO1)[C@H]1CO1 [Dianhydrogalactitol],inactive: 0.677,inactive: 0.466,inactive: -1.58
O=C1NCc2ccccc2CC12CCCCN2Cc1cccc(F)c1 (centres undefined),active: 5.19,,inactive: -0.882
CC(=O)Nc1cccc(N2CCN(CCCCNS(=O)(=O)CC3CCCCC3)CC2)c1,inactive: -1.84,inactive: -0.151,active: 10.9
CCCNC(=O)c1ccc2c(c1)N(C(C)CN1CCCC1)c1ccccc1S2 (centres undefined) [Apadoline],inactive: -0.441,inactive: -0.378,inactive: 1.3
COc1ccc(CNc2nc(N3CCC[C@H]3CO)ncc2C(=O)NCc2ncccn2)cc1Cl [avanafil],inactive: 1.91,inactive: 0.0202,inactive: -0.97
CC(O)CN(C)c1ccc(NN)nn1 (centres undefined) [pildralazine],inactive: -0.494,inactive: 0.0246,inactive: -0.158
Cc1csc(Nc2nc3ccccc3[nH]2)n1,inactive: -0.833,inactive: 2.7,inactive: 3.57
CO[C@H]([C@H](OC)[C@H](O)COS(C)(=O)=O)[C@H](O)COS(C)(=O)=O,inactive: 1.69,inactive: -0.345,inactive: 0.271
CN1CCc2cc(Cl)c(O)cc2C(c2cccc3ccoc23)C1 (centres undefined),inactive: -1.16,inactive: -0.209,inactive: 1.98
COc1ccc(C[C@H](N)C(=O)N[C@H]2[C@@H](O)[C@H](n3cnc4c(N(C)C)ncnc43)O[C@@H]2CO)cc1,,inactive: 3.76,
COc1ccc(C[C@H](N)C(=O)N[C@H]2[C@@H](O)[C@H](n3cnc4c(N(C)C)ncnc43)O[C@@H]2CO)cc1 [Puromycin dihydrochloride],inactive: -1.08,,inactive: 0.859
COc1ccc(C(=O)CC(=O)c2ccc(C(C)(C)C)cc2)cc1,inactive: -0.348,inactive: 0.454,inactive: 0.721

# Single records, as listed above:
# Cc1nc(-c2cccnc2)c(-c2ccccc2)[nH]1 is listed with TEAD-luciferase reporter activity (compound concentration: 200 nM): inactive: -0.521; TEAD-luciferase reporter activity (compound concentration: 2 uM): inactive: 0.233; TEAD-luciferase reporter activity (compound concentration: 10 uM): inactive: -0.0682
# CS(=O)(=O)OCCCCOS(C)(=O)=O [Busulfan55-98-1] is listed with TEAD-luciferase reporter activity (compound concentration: 200 nM): inactive: -1.27; TEAD-luciferase reporter activity (compound concentration: 10 uM): inactive: -0.0964
